From the supplement of paper PMC10735217
Counter-ions that a name gives are not always drawn. Some of the results follow. This data set is noisy: repeats of one test often differ as much as different tests do.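 The human kidney-derived cells carry a stably integrated construct of eight TEAD-binding elements driving luciferase, read by luminescence in a drug-repurposing library screen. A compound counts as a hit when its signal is more than five robust Z scores above the plate mean.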

Test system: HEK293A TEAD-LUC reporter
Test: TEAD-luciferase reporter activity (YAP activation), robust Z score vs plate; higher = stronger YAP/TEAD activation
Conditions: 24 h

SMILES	TEAD-luciferase reporter activity (compound concentration: 2 uM)	TEAD-luciferase reporter activity (compound concentration: 200 nM)	TEAD-luciferase reporter activity (compound concentration: 10 uM)
N=C(N)c1ccc(/N=N/Nc2ccc(C(=N)N)cc2)cc1 [Diminazene Aceturate]	inactive: -1.41		
N=C(N)c1ccc(/N=N/Nc2ccc(C(=N)N)cc2)cc1 [diminazene diaceturate]		inactive: 0.662	inactive: 0.939
NCC(=O)Oc1ccc2c3c(cccc13)OC1(C=CC(=O)c3c(O)cccc31)O2 (stereo unspecified)	inactive: 0.139	inactive: -1.2	inactive: 2.87
CC(=O)N1Cc2ccccc2CC2(CCCN2Cc2ccccc2)C1 (stereo unspecified)		inactive: 0.473	inactive: 1.2
CN1CCCCC1CCN1c2ccccc2Sc2ccc(S(C)=O)cc21 (stereo unspecified)	inactive: -1.19		
CN1CCCCC1CCN1c2ccccc2Sc2ccc(S(C)=O)cc21 (stereo unspecified) [Mesoridazine]		inactive: -0.534	inactive: 2.86
O=Cc1cccc(N2CCN(C(=O)Nc3ccccc3)CC2=O)c1		inactive: 0.0234	inactive: 0.664
CCOC(=O)CCNC(=O)N[C@H]1CCN(c2ccc(C(=N)NO)cc2)C1=O	inactive: -0.259	inactive: -0.554	inactive: -0.352
CC(C)Cn1nnnc1-c1cccc(N)c1	inactive: -0.0109	inactive: 0.8	inactive: -0.478
Clc1ccc(C(Cn2ccnc2)OCc2ccsc2Cl)c(Cl)c1 (stereo unspecified) [tioconazole]	inactive: -0.475	inactive: -0.793	inactive: 2.64
CC(C)C[C@H](NC(=O)[C@@H](Cc1ccc2ccccc2c1)NC(=O)[C@H](Cc1ccc(O)cc1)NC(=O)[C@H](CO)NC(=O)[C@H](Cc1c[nH]c2ccccc12)NC(=O)[C@H](Cc1c[nH]cn1)NC(=O)[C@@H]1CCC(=O)N1)C(=O)N[C@@H](CCCNC(=N)N)C(=O)N1CCC[C@H]1C(=O)NCC(N)=O [Nafarelin]		inactive: -1.29	inactive: -0.914
CC[C@H](C)Nc1nc(C)nc2c(-c3c(C)cc(OC)cc3OC)c(C)nn12	inactive: -1.46	inactive: -0.0145	inactive: 0.882
C[C@]12CC[C@@H]3c4ccc(O)cc4CC[C@H]3[C@@H]1C[C@H]1O[C@H]12	inactive: -0.678	inactive: -0.803	inactive: -1.23
Cc1ccc(S(=O)(=O)[N-]c2n[n+](-c3cccc(Cl)c3C)no2)cc1	inactive: 1.13	inactive: -1.36	inactive: -0.525
NC(=O)N(O)C[C@H]1COc2ccc(Oc3ccc(F)cc3)cc2O1	inactive: -0.315	inactive: 1.05	inactive: 0.474
COC(=O)C(Cc1ccc(CCOc2ccc(OS(C)(=O)=O)cc2)cc1)SCCc1ccc(O)cc1 (stereo unspecified)	inactive: -1.58	inactive: 0.0135	inactive: 1.06
CCN(CC)CC#CCC1(C)c2ccccc2-c2ccccc21	inactive: 0.828	inactive: -2.05	inactive: 1.56
CCOC(=O)CC1COc2ccc(NC(=O)c3ccc(C(=N)N4CCOCC4)cc3)cc2C1 (stereo unspecified)	inactive: 0.983	inactive: -1.53	inactive: 0.0433
O=C1CC2(CCCC2)C(O)C(=O)N1CCCCN1CCN(c2ncccn2)CC1 (stereo unspecified) [6-Hydroxybuspirone]	inactive: -2.22	inactive: 0.557	inactive: 1.93

Single records, from the list above.
CN1CCCCC1CCN1c2ccccc2Sc2ccc(S(C)=O)cc21 (stereo unspecified) as listed: TEAD-luciferase reporter activity (compound concentration: 2 uM): inactive: -1.19
O=C1CC2(CCCC2)C(O)C(=O)N1CCCCN1CCN(c2ncccn2)CC1 (stereo unspecified) [6-Hydroxybuspirone] as listed: TEAD-luciferase reporter activity (compound concentration: 2 uM): inactive: -2.22; TEAD-luciferase reporter activity (compound concentration: 200 nM): inactive: 0.557; TEAD-luciferase reporter activity (compound concentration: 10 uM): inactive: 1.93
N=C(N)c1ccc(/N=N/Nc2ccc(C(=N)N)cc2)cc1 [diminazene diaceturate] as listed: TEAD-luciferase reporter activity (compound concentration: 200 nM): inactive: 0.662; TEAD-luciferase reporter activity (compound concentration: 10 uM): inactive: 0.939
CC(C)Cn1nnnc1-c1cccc(N)c1 as listed: TEAD-luciferase reporter activity (compound concentration: 2 uM): inactive: -0.0109; TEAD-luciferase reporter activity (compound concentration: 200 nM): inactive: 0.8; TEAD-luciferase reporter activity (compound concentration: 10 uM): inactive: -0.478

(cont.)

SMILES	TEAD-luciferase reporter activity (compound concentration: 2 uM)	TEAD-luciferase reporter activity (compound concentration: 200 nM)	TEAD-luciferase reporter activity (compound concentration: 10 uM)
CN/C(=N\S(=O)(=O)N1CCCCC1)N1C[C@@H](c2ccccc2)C(c2ccc(Cl)cc2)=N1	inactive: -0.839	inactive: -0.25	inactive: 1.14
COc1ccc(OCC(F)(F)C(F)F)c(C(=O)O)c1	inactive: 0.138	inactive: -2.35	inactive: -0.454
CCC(=O)O[C@]1(C(=O)CCl)[C@@H](C)C[C@H]2[C@@H]3CCC4=CC(=O)C=C[C@]4(C)[C@@]3(F)[C@@H](O)C[C@@]21C [Clobetasol propionate]		inactive: -0.267	inactive: 1.76
CCC(=O)O[C@]1(C(=O)CCl)[C@@H](C)C[C@H]2[C@@H]3CCC4=CC(=O)C=C[C@]4(C)[C@@]3(F)[C@@H](O)C[C@@]21C [clobetasol propionate, Foamix]	inactive: 0.426		
N#Cc1cnn2c1N(C(=O)CN1CCN(Cc3ccccc3)CC1)CC=C2c1cccc(C(F)(F)F)c1	inactive: -0.978	inactive: -0.525	inactive: 0.925
CC[PH](CC)(CC)[Au][S][C@@H]1O[C@H](COC(C)=O)[C@@H](OC(C)=O)[C@H](OC(C)=O)[C@H]1OC(C)=O [auranofin]	inactive: -2.74	inactive: 0.14	inactive: -0.216
COc1ccc(CCN(C)CCCN2CCc3cc(OC)c(OC)cc3CC2=O)cc1OC [Zatebradine hydrochloride]	inactive: -0.451	inactive: -0.521	inactive: 0.398
CCC(CC)[C@H](NC(C)=O)[C@@H]1[C@H](O)[C@@H](C(=O)O)C[C@H]1NC(=N)N [Peramivir]		inactive: -0.789	inactive: 0.0554
CC12CCCN1Cc1nnc(=O)c3cc(F)cc4c3c1C2=N4 (stereo unspecified)	inactive: -0.711	inactive: -1.4	inactive: -0.569
CNC(=O)CCN1CCN(CC/C=C2/c3ccccc3Sc3ccc(Cl)cc32)CC1	inactive: 1.28	inactive: -0.439	inactive: 0.606
CNS(=O)(=O)Cc1ccc2[nH]cc(CCCN3CCN(c4ncncc4OC)CC3)c2c1	inactive: 0.986	inactive: -0.818	inactive: -1.36
CCc1nc2c(C)cc(C)nc2n1Cc1ccc(-c2ccccc2S(=O)(=O)NC(=O)c2ccccc2)cc1	inactive: -0.613	inactive: -0.738	inactive: 3.5
COC(=O)C1CCN(c2nc(N)c3cc(OC)c(OC)cc3n2)CC1	inactive: 0.655	inactive: -0.824	inactive: -2.02
CC(C)Nc1nc2cc(Cl)c(Cl)cc2n1[C@H]1O[C@@H](CO)[C@H](O)[C@@H]1O [maribavir]	inactive: 0.175	inactive: -2.23	inactive: -0.723
CCCCCCCCOc1ccccc1CC(=O)NC(Cc1ccccc1)c1ccccc1 (stereo unspecified)	inactive: -0.514	inactive: -0.971	inactive: 2.54
Cc1ccc(C(C)C)cc2c(C)ccc1-2	inactive: -0.783	inactive: -1.15	inactive: 0.603
COc1ccc(Nc2c(C(=O)O)cnc3ccc(C(=O)O)cc23)cc1	inactive: 0.385	inactive: -0.223	inactive: 1.19
O=c1oc2cc(O)ccc2c2ccc(O)cc12 [Urolithin A]	inactive: 0.124	inactive: 0.123	inactive: 0.88
COCCOCCOCCOc1cccc(C2=N[C@@](C)(C(=O)O)CS2)c1O	inactive: -1.18	inactive: 1.11	inactive: 1.99

SMILES	TEAD-luciferase reporter activity (compound concentration: 2 uM)	TEAD-luciferase reporter activity (compound concentration: 200 nM)	TEAD-luciferase reporter activity (compound concentration: 10 uM)
O=C(O)c1ccc(CCN2CCCC2)nc1	inactive: -0.455	inactive: -0.914	inactive: -0.105
CC(C)n1nccc1-c1ncccc1COc1cccc(O)c1C=O	inactive: 1.02	inactive: 1.17	inactive: -1.09
CC(C)NC(=O)NS(=O)(=O)c1cnc(N)nc1N[C@H]1C[C@H]2CC[C@@H]1C2	inactive: -0.238	inactive: -0.407	inactive: 2.1
Cc1c(Nc2ncccc2C(=O)O)cccc1C(F)(F)F [flunixin]	inactive: 3.15	inactive: -0.99	inactive: 3.86
CCOP(=O)(CCCCCCOc1ccc(F)c(OC)c1)OCC	inactive: 1.12	inactive: 0.101	inactive: 0.516
N/C(=N\O)c1ccc(N2CCC(Oc3ccccc3)CC2)nn1 [SCD1 inhibitors]	inactive: -0.0472	inactive: -0.356	inactive: 0.453
CCNCC[C@H](O)CNCCCCNC[C@@H](O)CCNCC	inactive: -1.51	inactive: -2.03	inactive: -0.486
NCC(=O)N[C@@H](Cc1ccc(O)cc1)C(=O)NCC(=O)O	inactive: -0.505	inactive: -0.473	inactive: -1.15
C=CC(=O)Nc1cc2c(Nc3ccc(F)c(Cl)c3)ncnc2cc1OCCCN1CCOCC1 [Canertinib dihydrochloride]	inactive: -1.5	active: 5.5	inactive: 3.81
CCN1Cc2nc(N3CCNCC3)ncc2C1=O	inactive: -1.26	inactive: 0.114	inactive: 3.56
C[C@@H](c1nc(-c2ccc(C#N)cc2)cs1)[C@](O)(Cn1cncn1)c1ccc(F)cc1F [Ravuconazole]		inactive: 0.343	inactive: 0.134
COc1ccccc1N1CCN(CCCNc2cc(=O)n(C)c(=O)n2C)CC1		inactive: -2.47	inactive: -2.16
COc1ccccc1N1CCN(CCCNc2cc(=O)n(C)c(=O)n2C)CC1 [urapidil]	inactive: -1.05		
CNC(=O)c1ccc2c(c1)S(=O)(=O)c1ccccc1C2=O	inactive: -1.07	inactive: 1.83	inactive: 2.68
O=C(c1ccccc1)c1cccc(NC(=O)c2ccn3c2CSC3c2cccnc2)c1 (stereo unspecified)	inactive: -1.15	inactive: -1.75	inactive: 0.517
CN1C(=N)N[C@@](C)(c2cc(NC(=O)c3ccc(F)cn3)ccc2F)CS1(=O)=O [Verubecestat]	inactive: -1.12	inactive: 0.961	inactive: -1.07
CNC(=O)NCCn1c(-c2ccc(N3CCOCC3)cc2)cs/c1=N/c1cccc(F)c1	inactive: 0.605	inactive: -1.2	inactive: -1.37
CCOC(=O)C(C)(C)CCCCOc1ccc(OCCCCCn2ccnc2)cc1	inactive: -0.566	inactive: 2.43	inactive: -0.137
